Screen size: about 340,000 compounds; about 6,200 (1.8%) were called active. The inconclusive results got no clear call from the source; some entries with a clear call stand among them for comparison. Calls follow the shape of the dose curve; as a rule, active = well fitted activation curve with a large enough effect; inconclusive = small, poorly fitted or top-dose-only effect; inactive = no such curve, though single readings can be large or run the other way. Potencies of inconclusive entries are doubtful fits and often do not repeat.
Test: A quantitative high throughput screen for small molecules that induce DNA re-replication in SW480 colon adenocarcinoma cells. Also: nearly all actives have a fitted effect of over 55% in size. As to re-replication activation: % of control where 0% means no effect.
Conditions: Hoechst DNA content imaging, 48 h; re-replication activation: at 46.1 µM (top of the series) unless noted
Outline: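 Per well, 250 cells were exposed to pinned compound for 48 hr. Nuclear DNA was visualised with Hoechst (40 min, 37 C) and total object intensity recorded by fluorescence scanning.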
Potency is read from the fitted curve at half-maximal effect.

Row | SMILES | Potency | re-replication activation
1 | Cc1cc2c(cc(C(=O)OC(C(=O)NCc3ccco3)C(C)C)n2C)o1 (stereo unspecified) | inactive | 
2 | CCOc1ccc(/C=C/C(=O)c2c(O)cc(C)oc2=O)cc1 | inconclusive: 29.1 µM [activator, single point] | 
3 | CC(C)c1nc(SCC(=O)Nc2ccc(N(C)C)cc2)c2ccccc2n1 | inconclusive: 18.4 µM [activator, single point] | 
4 | COc1ccc(NC(=O)Nc2cccc3c2O[C@H](CN(C)S(C)(=O)=O)[C@@H](C)CN([C@H](C)CO)C3=O)cc1 | inactive | 
5 | O=[N+]([O-])c1cc(Cl)cc(C2=NCCN2)c1 | inconclusive: 0.0065 µM [activator, full curve, poor fit] | 
6 | COc1ccc(CNC(=O)COC(=O)c2cc(-c3ccc(Cl)s3)nc3ccccc23)cc1 | inconclusive: 16.4 µM [activator, single point] | 
7 | CC(C)NC(=O)C1CCN(Cc2cccc(Oc3ccccc3)c2)CC1 | inconclusive: 29.1 µM [activator, single point] | 
8 | CCCCCN=C(N)N/N=C/c1c[nH]c2ccc(OC)cc12 | inconclusive: 14.6 µM [activator, single point] | 
9 | CCN(CC(=O)Nc1ccc(NC(C)=O)cc1)CC(=O)Nc1ccccc1C(=O)c1ccccc1 | inconclusive: 0.58 µM [activator, partial curve, poor fit] | 
10 | CCCC(=O)NC(=S)Nc1cccc2c(O)cccc12 | inconclusive: 4.11 µM [activator, full curve] | 
11 | CC(C)N(C(=O)CN1C(=O)C(=O)c2ccccc21)c1ccccc1 | inconclusive: 5.8 µM [activator, partial curve] | 
12 | COc1ccc(NCc2nnc(SCc3ccc(Cl)cc3)n2-c2ccccc2)cc1 | inconclusive: 20.6 µM [activator, single point] | 
13 | CC(=O)OCC1(C)CN(c2ccccc2)N(C(=O)c2ccc(C(C)(C)C)cc2)C1=O (stereo unspecified) | inconclusive: 1.46 µM [activator, partial curve, poor fit] | 
14 | COc1ccc(/C=N/Nc2ccccn2)cc1OC | inconclusive: 32.6 µM [activator, partial curve, poor fit] | 
15 | NNC(=O)/C(=N/Nc1ccccc1)S(=O)(=O)c1ccc(Cl)cc1 | inconclusive: 29.1 µM [activator, single point] | 
16 | CCOCCOc1cc(NCc2ccccc2)c2ncn(C(C)C)c2c1 | inconclusive: 23.1 µM [activator, partial curve, poor fit] | 
17 | Cc1ccc(-n2nc3c([n+]2[O-])CCc2c-3no[n+]2[O-])cc1 | inconclusive: 25.9 µM [activator, single point] | 
18 | Cc1ccccc1C(=O)Nc1cccc(NC(=O)c2ccc(F)cc2)c1 | inactive | 
19 | Cc1noc(C)c1COc1ccccc1C(=O)NC1CCC(C)CC1 (stereo unspecified) | inconclusive: 2.31 µM [activator, partial curve, poor fit] | 
20 | CCOC(=O)c1cccc(Nc2nc(-c3cccnc3)nc3ccccc23)c1 | inconclusive: 25.9 µM [activator, single point] | 
21 | C=CCOc1ccccc1C(=O)/C=C1/C(=O)Nc2ccccc21 | inconclusive: 29.1 µM [activator, single point] | 

Row | SMILES | Potency | re-replication activation
22 | CC(=O)N1CCN(c2ccc(NC(=O)c3ccccc3)cc2)CC1 |  | inactive: -0.1% [at 9.22 µM]
23 | CCCCn1c(N)c(N(CCOC)C(=O)COC(=O)CCOc2ccc(C)cc2)c(=O)[nH]c1=O | inconclusive: 0.731 µM [activator, full curve, poor fit] | 
24 | CN[C@@H]1CC[C@H](c2ccc(Cl)c(Cl)c2)c2ccccc21 | inconclusive: 29.1 µM [activator, single point] | 
25 | CCOc1ccc(C2C(C(=O)OC)=CN(C(C)c3ccccc3)C=C2C(=O)OC)cc1 (stereo unspecified) | inconclusive: 18.4 µM [activator, single point] | 
26 | COc1ccc(-c2cc(C(=O)N3CCN(Cc4ccc5c(c4)OCO5)CC3)on2)cc1OC | inconclusive: 29.1 µM [activator, single point] | 
27 | COc1ccc(C(=O)CCS(=O)(=O)c2ccc(C)cc2)cc1OC | active: 5.17 µM | 
28 | COc1ccccc1Nc1nc(N)nc(-c2oc3ccccc3c2C)n1 | active: 7.31 µM | 
29 | COc1cccc(OCC(O)CN2CCN(CCN3C(=O)c4cccc5cccc(c45)C3=O)CC2)c1 (stereo unspecified) | inconclusive: 20.6 µM [activator, single point] | 
30 | O=[N+]([O-])c1c(Nc2cccc(O)c2)cc(Cl)c2nonc12 | inconclusive: 3.66 µM [activator, single point] | 
31 | FC(F)(F)c1cc(NC2CCCCC2)ccn1 | inconclusive: 10.3 µM [activator, partial curve, poor fit] | 
32 | CC(C)(C)c1ccc(C(=O)Nc2ccc(NC(=O)c3ccco3)cc2)cc1 | inconclusive: 8.2 µM [activator, partial curve, poor fit] | 
33 | CCOc1ccc(CN2CCC(C(=O)Nc3cccc(-c4ccn[nH]4)c3)CC2)cc1Cl | inconclusive: 18.4 µM [activator, single point] | 
34 | COc1ccc(C(C)(C)C)cc1NC(=O)CCc1c(C)noc1C | inconclusive: 0.731 µM [activator, partial curve, poor fit] | 
35 | Cc1cccc2cc3c(N)c(C(=O)N4CCc5ccccc54)sc3nc12 | inconclusive: 29.1 µM [activator, single point] | 
36 | COC(=O)c1sccc1OCc1cccc(OC)c1 | inactive | 
37 | NC(=O)C1CCN(C(=O)c2ccco2)CC1 | inconclusive: 29.1 µM [activator, single point] | 
38 | Cc1ccc(NC(=S)NC(=O)c2ccc(F)cc2)cc1S(=O)(=O)Nc1cccc(Cl)c1 | active: 3.66 µM | 
39 | CC(NC(=O)Nc1nnc(C(F)(F)F)s1)(C(F)(F)F)C(F)(F)F | inconclusive: 18.4 µM [activator, partial curve] | 
40 | CN(Cc1ccco1)c1ncnc2ccc(-c3ccoc3)cc12 | inactive | 
41 | COC(=O)c1cc(N=C(N)N=C(N)N)cc(C(=O)OC)c1 | inconclusive: 10.3 µM [activator, partial curve, poor fit] | 

Exported with each value named: two of the compounds above.
Cc1cc2c(cc(C(=O)OC(C(=O)NCc3ccco3)C(C)C)n2C)o1 (stereo unspecified)
  Potency: inactive
CCOc1ccc(CN2CCC(C(=O)Nc3cccc(-c4ccn[nH]4)c3)CC2)cc1Cl
  Potency: inconclusive: 18.4 µM [activator, single point]

Reference: PubChem BioAssay AID624297 (National Center for Advancing Translational Sciences (NCATS), 2012)
